The supplement of paper PMC12823440, “Inhibitors supercharge kinase turnover through native proteolytic circuits” (Nature, 2025)
The list shows a part of the results. Hit calls seldom repeat between salt and free forms of one compound.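 In K562 cells expressing nanoluciferase-fused kinases, luminescence was recorded at 4 h intervals between 2 and 18 h, normalized as percent of control with DMSO at 100% and a positive control at 0%. A significant (2 sigma) signal drop marks a time point as decreased. The authors' rule for a hit is not shown and takes in more than the number of time points.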

Chains of the proteins cited; added tags and fusions are not shown. Lines headed by an entry give the natural chain unless they say otherwise; changes in a name come on top.
UniProt P50750, whole entry: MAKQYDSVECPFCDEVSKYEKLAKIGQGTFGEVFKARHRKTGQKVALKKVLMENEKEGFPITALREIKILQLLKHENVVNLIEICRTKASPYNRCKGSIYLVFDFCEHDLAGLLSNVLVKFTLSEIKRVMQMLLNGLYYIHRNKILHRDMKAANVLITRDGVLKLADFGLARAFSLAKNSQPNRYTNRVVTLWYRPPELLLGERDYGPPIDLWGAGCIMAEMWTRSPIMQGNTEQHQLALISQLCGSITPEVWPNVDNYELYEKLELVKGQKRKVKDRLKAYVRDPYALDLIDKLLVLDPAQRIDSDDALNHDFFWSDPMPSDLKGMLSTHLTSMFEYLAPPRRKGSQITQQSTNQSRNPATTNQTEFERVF
UniProt O96017, whole entry: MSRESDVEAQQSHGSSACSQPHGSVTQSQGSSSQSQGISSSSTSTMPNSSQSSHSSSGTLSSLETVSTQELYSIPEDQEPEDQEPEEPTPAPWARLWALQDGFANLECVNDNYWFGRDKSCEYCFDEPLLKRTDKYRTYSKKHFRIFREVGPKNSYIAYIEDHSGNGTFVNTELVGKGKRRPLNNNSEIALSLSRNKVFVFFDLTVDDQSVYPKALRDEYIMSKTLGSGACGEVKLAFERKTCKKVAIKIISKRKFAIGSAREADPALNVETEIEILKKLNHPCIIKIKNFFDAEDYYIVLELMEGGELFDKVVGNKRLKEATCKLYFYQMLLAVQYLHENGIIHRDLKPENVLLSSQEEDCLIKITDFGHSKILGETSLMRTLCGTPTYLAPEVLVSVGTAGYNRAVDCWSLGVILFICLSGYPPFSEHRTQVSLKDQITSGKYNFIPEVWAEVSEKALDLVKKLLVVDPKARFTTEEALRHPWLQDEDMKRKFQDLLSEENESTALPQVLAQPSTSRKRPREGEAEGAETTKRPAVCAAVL
UniProt P07333, whole entry: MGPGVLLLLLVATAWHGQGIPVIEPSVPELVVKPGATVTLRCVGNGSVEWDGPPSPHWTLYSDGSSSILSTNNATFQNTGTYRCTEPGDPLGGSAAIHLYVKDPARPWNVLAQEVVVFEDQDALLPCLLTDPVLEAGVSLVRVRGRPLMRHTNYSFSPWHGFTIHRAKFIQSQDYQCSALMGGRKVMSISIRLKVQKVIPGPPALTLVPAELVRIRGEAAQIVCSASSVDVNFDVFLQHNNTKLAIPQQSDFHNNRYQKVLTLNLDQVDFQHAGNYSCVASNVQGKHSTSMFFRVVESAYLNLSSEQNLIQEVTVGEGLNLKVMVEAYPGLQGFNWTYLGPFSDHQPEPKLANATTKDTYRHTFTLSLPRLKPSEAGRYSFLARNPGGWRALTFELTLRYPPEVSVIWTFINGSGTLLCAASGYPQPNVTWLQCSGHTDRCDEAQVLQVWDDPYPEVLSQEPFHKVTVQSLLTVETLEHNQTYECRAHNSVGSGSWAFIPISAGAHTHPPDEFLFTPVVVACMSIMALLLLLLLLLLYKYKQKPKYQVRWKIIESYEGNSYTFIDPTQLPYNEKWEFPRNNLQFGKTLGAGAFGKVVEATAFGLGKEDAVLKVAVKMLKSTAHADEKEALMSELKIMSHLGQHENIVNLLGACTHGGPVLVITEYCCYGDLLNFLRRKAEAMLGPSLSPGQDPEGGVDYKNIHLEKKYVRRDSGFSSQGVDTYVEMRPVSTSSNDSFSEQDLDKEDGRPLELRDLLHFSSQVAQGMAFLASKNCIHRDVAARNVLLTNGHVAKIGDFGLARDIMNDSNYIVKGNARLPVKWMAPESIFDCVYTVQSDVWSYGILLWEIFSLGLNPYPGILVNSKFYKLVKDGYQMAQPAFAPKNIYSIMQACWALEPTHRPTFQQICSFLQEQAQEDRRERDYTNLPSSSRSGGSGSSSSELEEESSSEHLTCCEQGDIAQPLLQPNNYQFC
UniProt P41240: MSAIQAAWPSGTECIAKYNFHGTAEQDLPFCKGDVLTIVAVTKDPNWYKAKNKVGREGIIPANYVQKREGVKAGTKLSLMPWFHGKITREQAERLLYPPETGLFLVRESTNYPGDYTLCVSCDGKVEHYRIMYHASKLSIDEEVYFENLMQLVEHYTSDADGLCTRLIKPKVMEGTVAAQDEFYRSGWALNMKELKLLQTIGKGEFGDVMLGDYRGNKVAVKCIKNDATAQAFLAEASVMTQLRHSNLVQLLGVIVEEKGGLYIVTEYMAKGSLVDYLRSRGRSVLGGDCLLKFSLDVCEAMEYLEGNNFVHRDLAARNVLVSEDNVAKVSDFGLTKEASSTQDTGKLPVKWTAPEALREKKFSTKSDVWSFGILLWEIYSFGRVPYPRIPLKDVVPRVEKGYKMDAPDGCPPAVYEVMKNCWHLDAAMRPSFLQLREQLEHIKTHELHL
UniProt P48729: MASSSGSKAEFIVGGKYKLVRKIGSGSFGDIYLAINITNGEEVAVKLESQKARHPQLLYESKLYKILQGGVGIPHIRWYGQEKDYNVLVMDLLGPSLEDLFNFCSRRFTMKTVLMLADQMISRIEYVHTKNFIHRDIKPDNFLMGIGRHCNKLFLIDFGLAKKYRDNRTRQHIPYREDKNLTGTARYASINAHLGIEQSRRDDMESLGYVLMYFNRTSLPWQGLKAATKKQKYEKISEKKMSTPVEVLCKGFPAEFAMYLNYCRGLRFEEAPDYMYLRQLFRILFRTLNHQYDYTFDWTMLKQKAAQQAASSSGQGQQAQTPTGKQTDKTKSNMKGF
UniProt P48730: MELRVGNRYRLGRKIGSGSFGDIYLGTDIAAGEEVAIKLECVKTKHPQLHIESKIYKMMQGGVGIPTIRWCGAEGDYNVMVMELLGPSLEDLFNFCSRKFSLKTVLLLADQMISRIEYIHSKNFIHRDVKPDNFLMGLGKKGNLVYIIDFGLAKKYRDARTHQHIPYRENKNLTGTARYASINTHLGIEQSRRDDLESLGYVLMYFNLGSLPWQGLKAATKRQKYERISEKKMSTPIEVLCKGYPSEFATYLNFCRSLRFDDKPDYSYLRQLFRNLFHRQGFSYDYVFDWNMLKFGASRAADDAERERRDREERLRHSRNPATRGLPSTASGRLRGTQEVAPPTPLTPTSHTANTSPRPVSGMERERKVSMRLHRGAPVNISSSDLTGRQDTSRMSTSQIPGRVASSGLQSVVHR
UniProt Q08345: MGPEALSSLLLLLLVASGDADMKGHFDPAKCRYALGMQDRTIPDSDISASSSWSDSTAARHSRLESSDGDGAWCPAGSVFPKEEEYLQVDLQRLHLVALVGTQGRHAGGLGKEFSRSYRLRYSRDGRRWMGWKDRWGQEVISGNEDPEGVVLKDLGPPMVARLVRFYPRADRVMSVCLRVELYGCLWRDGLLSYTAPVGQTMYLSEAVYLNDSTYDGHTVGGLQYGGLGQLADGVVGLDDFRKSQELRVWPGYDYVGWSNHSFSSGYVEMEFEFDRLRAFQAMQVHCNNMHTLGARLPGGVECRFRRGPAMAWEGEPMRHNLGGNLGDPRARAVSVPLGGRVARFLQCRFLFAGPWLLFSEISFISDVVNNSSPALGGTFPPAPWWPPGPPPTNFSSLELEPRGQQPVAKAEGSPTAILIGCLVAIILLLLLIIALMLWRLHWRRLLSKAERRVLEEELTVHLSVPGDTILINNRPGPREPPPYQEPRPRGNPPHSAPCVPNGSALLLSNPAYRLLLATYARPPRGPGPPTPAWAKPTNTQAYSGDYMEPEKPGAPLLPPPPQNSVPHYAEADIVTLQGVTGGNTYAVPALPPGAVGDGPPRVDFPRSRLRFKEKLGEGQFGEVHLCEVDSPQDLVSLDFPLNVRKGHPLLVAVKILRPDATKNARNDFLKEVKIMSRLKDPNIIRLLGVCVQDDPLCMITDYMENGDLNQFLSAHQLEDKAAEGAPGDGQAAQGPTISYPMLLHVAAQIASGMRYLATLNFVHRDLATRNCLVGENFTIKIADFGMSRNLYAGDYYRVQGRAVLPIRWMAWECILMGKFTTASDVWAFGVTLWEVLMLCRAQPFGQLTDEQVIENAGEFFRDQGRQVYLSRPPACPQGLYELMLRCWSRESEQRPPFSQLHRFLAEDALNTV
UniProt Q9Y463, whole entry, looked up: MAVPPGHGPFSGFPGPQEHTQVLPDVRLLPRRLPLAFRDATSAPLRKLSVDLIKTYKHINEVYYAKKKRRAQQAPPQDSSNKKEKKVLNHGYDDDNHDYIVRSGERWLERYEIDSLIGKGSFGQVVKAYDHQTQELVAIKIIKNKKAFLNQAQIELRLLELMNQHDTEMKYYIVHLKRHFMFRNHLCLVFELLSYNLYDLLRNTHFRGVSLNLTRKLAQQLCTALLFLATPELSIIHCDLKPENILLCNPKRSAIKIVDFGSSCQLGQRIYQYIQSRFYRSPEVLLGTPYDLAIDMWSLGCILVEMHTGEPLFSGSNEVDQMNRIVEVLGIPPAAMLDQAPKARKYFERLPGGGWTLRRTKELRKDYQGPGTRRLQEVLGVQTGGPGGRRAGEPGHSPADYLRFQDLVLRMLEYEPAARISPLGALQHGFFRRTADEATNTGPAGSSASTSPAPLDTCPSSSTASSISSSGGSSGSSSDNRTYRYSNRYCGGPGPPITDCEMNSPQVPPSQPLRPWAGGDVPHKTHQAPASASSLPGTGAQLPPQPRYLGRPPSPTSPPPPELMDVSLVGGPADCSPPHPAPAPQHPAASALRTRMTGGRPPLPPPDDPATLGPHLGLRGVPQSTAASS
UniProt Q92630: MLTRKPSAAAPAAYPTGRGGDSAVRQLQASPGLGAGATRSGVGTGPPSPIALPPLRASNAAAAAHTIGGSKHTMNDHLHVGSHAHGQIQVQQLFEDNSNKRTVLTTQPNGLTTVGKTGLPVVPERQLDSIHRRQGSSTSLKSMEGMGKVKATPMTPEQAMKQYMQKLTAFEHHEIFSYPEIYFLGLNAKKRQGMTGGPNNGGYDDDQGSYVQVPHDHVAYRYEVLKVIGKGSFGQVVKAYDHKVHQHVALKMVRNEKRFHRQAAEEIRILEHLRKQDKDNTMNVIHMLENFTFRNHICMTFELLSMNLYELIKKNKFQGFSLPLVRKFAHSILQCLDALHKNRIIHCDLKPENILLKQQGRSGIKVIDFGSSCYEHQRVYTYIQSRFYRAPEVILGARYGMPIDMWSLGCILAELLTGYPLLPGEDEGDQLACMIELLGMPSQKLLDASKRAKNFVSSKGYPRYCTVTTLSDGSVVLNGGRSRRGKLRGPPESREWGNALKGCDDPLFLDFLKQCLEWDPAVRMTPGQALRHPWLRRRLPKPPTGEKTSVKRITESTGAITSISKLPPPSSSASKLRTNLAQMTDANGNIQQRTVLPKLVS
UniProt P21860, whole entry: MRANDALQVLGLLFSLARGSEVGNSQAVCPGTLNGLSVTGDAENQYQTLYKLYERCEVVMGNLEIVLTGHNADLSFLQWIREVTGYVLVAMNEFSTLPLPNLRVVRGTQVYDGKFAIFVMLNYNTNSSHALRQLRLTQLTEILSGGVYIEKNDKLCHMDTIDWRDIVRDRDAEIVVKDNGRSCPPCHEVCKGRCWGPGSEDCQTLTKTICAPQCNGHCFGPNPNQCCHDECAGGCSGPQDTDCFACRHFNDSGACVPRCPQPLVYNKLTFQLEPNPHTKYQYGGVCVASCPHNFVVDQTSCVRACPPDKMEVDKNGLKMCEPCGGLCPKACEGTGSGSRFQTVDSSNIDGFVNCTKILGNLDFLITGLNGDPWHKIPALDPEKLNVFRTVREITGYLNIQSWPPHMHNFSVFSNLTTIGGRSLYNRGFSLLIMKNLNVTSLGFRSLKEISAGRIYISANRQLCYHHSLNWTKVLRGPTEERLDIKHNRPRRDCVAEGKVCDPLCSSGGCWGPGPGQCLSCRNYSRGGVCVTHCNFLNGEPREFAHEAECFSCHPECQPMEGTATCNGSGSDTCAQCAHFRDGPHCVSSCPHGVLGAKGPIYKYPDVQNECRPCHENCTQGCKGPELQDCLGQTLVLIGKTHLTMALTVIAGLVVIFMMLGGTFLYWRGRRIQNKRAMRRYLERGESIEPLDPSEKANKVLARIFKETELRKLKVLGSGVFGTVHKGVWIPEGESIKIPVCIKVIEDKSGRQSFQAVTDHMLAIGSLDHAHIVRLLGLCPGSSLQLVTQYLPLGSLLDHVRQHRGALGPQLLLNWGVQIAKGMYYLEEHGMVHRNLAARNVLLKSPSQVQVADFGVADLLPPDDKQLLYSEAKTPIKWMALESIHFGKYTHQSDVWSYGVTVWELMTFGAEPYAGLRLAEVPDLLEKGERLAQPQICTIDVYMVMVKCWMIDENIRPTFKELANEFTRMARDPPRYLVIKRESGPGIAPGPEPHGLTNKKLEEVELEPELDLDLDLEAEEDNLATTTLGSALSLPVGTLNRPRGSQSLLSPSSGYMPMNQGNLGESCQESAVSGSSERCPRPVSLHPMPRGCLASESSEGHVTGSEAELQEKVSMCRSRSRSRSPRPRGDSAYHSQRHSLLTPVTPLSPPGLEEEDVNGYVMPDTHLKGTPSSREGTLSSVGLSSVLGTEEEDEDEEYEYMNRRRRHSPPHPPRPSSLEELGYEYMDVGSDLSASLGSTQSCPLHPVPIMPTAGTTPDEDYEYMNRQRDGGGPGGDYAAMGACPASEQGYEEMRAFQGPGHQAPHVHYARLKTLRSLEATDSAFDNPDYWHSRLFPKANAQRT

Tests used:
Assay in all cases: kinase-Nluc reporter destabilization hit call (1 = scored as downregulated) (binary); higher = compound decreases kinase abundance
Settings in all cases: K562; 2-18 h
[1] = target: CDK7 (UniProt P50613)
[2] = target: CDK9 (UniProt P50750)
[3] = target: CHEK2 (UniProt O96017)
[4] = target: CSF1R (UniProt P07333)
[5] = target: CSK (UniProt P41240)
[6] = target: CSNK1A1 (UniProt P48729)
[7] = target: CSNK1D (UniProt P48730)
[8] = target: DDR1 (UniProt Q08345)
[9] = target: DYRK1B (UniProt Q9Y463)
[10] = target: DYRK2 (UniProt Q92630)
[11] = target: EGFR (UniProt P00533)
[12] = target: EGFR_G719S (UniProt P00533)
[13] = target: EGFR_G719S_T790M (UniProt P00533)
[14] = target: EGFR_L718V (UniProt P00533)
[15] = target: EGFR_L858R (UniProt P00533)
[16] = target: EGFR_L861Q (UniProt P00533)
[17] = target: EGFR_T790M (UniProt P00533)
[18] = target: EPHA2 (UniProt P29317)
[19] = target: ERBB3 (UniProt P21860)
[20] = target: ERBB4_R711C (clone: ERBB4_mut) (UniProt Q15303)

Measured: kinase-Nluc reporter destabilization hit call

COc1cc(N2CCC(N3CCN(C)CC3)CC2)ccc1Nc1nc2c(c(Nc3ccccc3S(=O)(=O)NC(C)C)n1)CCN2 [Conteltinib] (10 µM)
inactive: [1] 0 | [2] 0 | [3] 0 | [4] 0 | [5] 0 | [6] 0 | [7] 0 | [8] 0 | [9] 0 | [10] 0 | [11] 0 | [12] 0 | [13] 0 | [14] 0 | [15] 0 | [16] 0 | [17] 0 | [18] 0 | [19] 0 | [20] 0

O=c1nc(N2CCOCC2)oc2c(-c3cccc4c3sc3ccccc34)cccc12 (10 µM)
inactive: [1] 0 | [2] 0 | [3] 0 | [4] 0 | [5] 0 | [6] 0 | [7] 0 | [8] 0 | [9] 0 | [10] 0 | [11] 0 | [12] 0 | [13] 0 | [14] 0 | [15] 0 | [16] 0 | [17] 0 | [18] 0 | [19] 0 | [20] 0

Cc1ccc(-c2ccc3c(ccc4sc5c(c43)NC[C@@H](C)NC5=O)n2)cn1 (10 µM)
inactive: [1] 0 | [2] 0 | [3] 0 | [4] 0 | [5] 0 | [6] 0 | [7] 0 | [8] 0 | [9] 0 | [10] 0 | [11] 0 | [12] 0 | [13] 0 | [14] 0 | [15] 0 | [16] 0 | [17] 0 | [18] 0 | [19] 0 | [20] 0

CCc1ccc(C(=O)COc2ccc(CC3SC(=O)NC3=O)cc2)nc1 (stereo not given) (10 µM)
inactive: [1] 0 | [2] 0 | [3] 0 | [4] 0 | [5] 0 | [6] 0 | [7] 0 | [8] 0 | [9] 0 | [10] 0 | [11] 0 | [12] 0 | [13] 0 | [14] 0 | [15] 0 | [16] 0 | [17] 0 | [18] 0 | [19] 0 | [20] 0

O=c1ccc2ccc(O)c(O)c2o1 [Daphnetin] (10 µM)
inactive: [1] 0 | [2] 0 | [3] 0 | [4] 0 | [5] 0 | [6] 0 | [7] 0 | [8] 0 | [9] 0 | [10] 0 | [11] 0 | [12] 0 | [13] 0 | [14] 0 | [15] 0 | [16] 0 | [17] 0 | [18] 0 | [19] 0 | [20] 0

N#C/C(=C\c1ccc2oc(=O)[nH]c2c1)C(=O)c1ccc(O)c(O)c1 (10 µM)
inactive: [1] 0 | [2] 0 | [3] 0 | [4] 0 | [5] 0 | [6] 0 | [7] 0 | [8] 0 | [9] 0 | [10] 0 | [11] 0 | [12] 0 | [13] 0 | [14] 0 | [15] 0 | [16] 0 | [17] 0 | [18] 0 | [19] 0 | [20] 0

CC[C@@H]1C(=O)N(C)c2cnc(Nc3ccc(C(=O)N[C@H]4CC[C@H](N5CCN(CC6CC6)CC5)CC4)cc3OC)nc2N1C(C)C [Volasertib] (2.5 µM)
inactive: [1] 0 | [2] 0 | [3] 0 | [4] 0 | [5] 0 | [6] 0 | [7] 0 | [8] 0 | [9] 0 | [10] 0 | [11] 0 | [12] 0 | [13] 0 | [14] 0 | [15] 0 | [16] 0 | [17] 0 | [18] 0 | [19] 0 | [20] 0

COc1nc(-c2cccc3c2OCCO3)ccc1Nc1ccc(CN(C)C)cc1 [RAS inhibitor Abd-7] (10 µM)
inactive: [1] 0 | [2] 0 | [3] 0 | [4] 0 | [5] 0 | [6] 0 | [7] 0 | [8] 0 | [9] 0 | [10] 0 | [11] 0 | [12] 0 | [13] 0 | [14] 0 | [15] 0 | [16] 0 | [17] 0 | [18] 0 | [19] 0 | [20] 0

Nothing new here: two of the compounds above.
Cc1ccc(-c2ccc3c(ccc4sc5c(c43)NC[C@@H](C)NC5=O)n2)cn1 (10 µM)
inactive: [1] 0 | [2] 0 | [3] 0 | [4] 0 | [5] 0 | [6] 0 | [7] 0 | [8] 0 | [9] 0 | [10] 0 | [11] 0 | [12] 0 | [13] 0 | [14] 0 | [15] 0 | [16] 0 | [17] 0 | [18] 0 | [19] 0 | [20] 0

CCc1ccc(C(=O)COc2ccc(CC3SC(=O)NC3=O)cc2)nc1 (stereo not given) (10 µM)
inactive: [1] 0 | [2] 0 | [3] 0 | [4] 0 | [5] 0 | [6] 0 | [7] 0 | [8] 0 | [9] 0 | [10] 0 | [11] 0 | [12] 0 | [13] 0 | [14] 0 | [15] 0 | [16] 0 | [17] 0 | [18] 0 | [19] 0 | [20] 0

Following part:

Cc1nc(NC(=O)NCCc2nnn(CCF)n2)sc1-c1ccc(S(C)(=O)=O)c(F)c1 (10 µM)
inactive: [1] 0 | [2] 0 | [3] 0 | [4] 0 | [5] 0 | [6] 0 | [7] 0 | [8] 0 | [9] 0 | [10] 0 | [11] 0 | [12] 0 | [13] 0 | [14] 0 | [15] 0 | [16] 0 | [17] 0 | [18] 0 | [19] 0 | [20] 0

CC(C)(O)[C@@H]1CC[C@](C)([C@H]2[C@@H](O)C[C@@]3(C)[C@@H]4C[C@H](O[C@@H]5O[C@H](CO)[C@@H](O)[C@H](O)[C@H]5O)[C@H]5C(C)(C)[C@@H](O[C@@H]6OC[C@@H](O)[C@H](O)[C@H]6O[C@@H]6O[C@H](CO)[C@@H](O)[C@H](O)[C@H]6O)CC[C@@]56C[C@@]46CC[C@]23C)O1 [Astragaloside VI] (10 µM)
inactive: [1] 0 | [2] 0 | [3] 0 | [4] 0 | [5] 0 | [6] 0 | [7] 0 | [8] 0 | [9] 0 | [10] 0 | [11] 0 | [12] 0 | [13] 0 | [14] 0 | [15] 0 | [16] 0 | [17] 0 | [18] 0 | [19] 0 | [20] 0

O=C(CO)N1CCC(c2n[nH]c(-c3ccc(Cl)cc3)c2-c2ccncn2)CC1 (10 µM)
inactive: [1] 0 | [2] 0 | [3] 0 | [4] 0 | [5] 0 | [6] 0 | [7] 0 | [8] 0 | [9] 0 | [10] 0 | [11] 0 | [12] 0 | [13] 0 | [14] 0 | [15] 0 | [16] 0 | [17] 0 | [18] 0 | [19] 0 | [20] 0

O=C1NC(=O)C(=Cc2ccc3c(c2)OCO3)S1 (10 µM)
inactive: [1] 0 | [2] 0 | [3] 0 | [4] 0 | [5] 0 | [6] 0 | [7] 0 | [8] 0 | [9] 0 | [10] 0 | [11] 0 | [12] 0 | [13] 0 | [14] 0 | [15] 0 | [16] 0 | [17] 0 | [18] 0 | [19] 0 | [20] 0

CCN1/C(=C/C(C)=O)Sc2ccc(OC)cc21 (10 µM)
inactive: [1] 0 | [2] 0 | [3] 0 | [4] 0 | [5] 0 | [6] 0 | [7] 0 | [8] 0 | [9] 0 | [10] 0 | [11] 0 | [12] 0 | [13] 0 | [14] 0 | [15] 0 | [16] 0 | [17] 0 | [18] 0 | [19] 0 | [20] 0

C[C@@H]1COCCN1c1cc(=O)n2c(n1)N(Cc1cncc(Cl)c1)[C@H](C(F)(F)F)CC2 (10 µM)
inactive: [1] 0 | [2] 0 | [3] 0 | [4] 0 | [5] 0 | [6] 0 | [7] 0 | [8] 0 | [9] 0 | [10] 0 | [11] 0 | [12] 0 | [13] 0 | [14] 0 | [15] 0 | [16] 0 | [17] 0 | [18] 0 | [19] 0 | [20] 0

CCC(C)(C)C(=O)N(O)Cc1ccccc1 (10 µM)
inactive: [1] 0 | [2] 0 | [3] 0 | [4] 0 | [5] 0 | [6] 0 | [7] 0 | [8] 0 | [9] 0 | [10] 0 | [11] 0 | [12] 0 | [13] 0 | [14] 0 | [15] 0 | [16] 0 | [17] 0 | [18] 0 | [19] 0 | [20] 0

CCOc1ccccc1C=C1C(=O)Nc2ccccc21 (10 µM)
inactive: [1] 0 | [2] 0 | [3] 0 | [4] 0 | [5] 0 | [6] 0 | [7] 0 | [8] 0 | [9] 0 | [10] 0 | [11] 0 | [12] 0 | [13] 0 | [14] 0 | [15] 0 | [16] 0 | [17] 0 | [18] 0 | [19] 0 | [20] 0

COc1ccc2c(c1)c(C1=C(c3c[nH]c4ccccc34)C(=O)NC1=O)cn2CCCN(C)C (10 µM)
active: [2] 1
inactive: [1] 0 | [3] 0 | [4] 0 | [5] 0 | [6] 0 | [7] 0 | [8] 0 | [9] 0 | [10] 0 | [11] 0 | [12] 0 | [13] 0 | [14] 0 | [15] 0 | [16] 0 | [17] 0 | [18] 0 | [19] 0 | [20] 0
